Source: publication PMC5596555
No constants are given. Whether binding was seen depends on the method and setting. For part of these data: Binding seen in cells or lysates may run through a third protein.

By UniProt entry, the sequences of proteins in these tests, tags left out.
UniProt Q9HCE7: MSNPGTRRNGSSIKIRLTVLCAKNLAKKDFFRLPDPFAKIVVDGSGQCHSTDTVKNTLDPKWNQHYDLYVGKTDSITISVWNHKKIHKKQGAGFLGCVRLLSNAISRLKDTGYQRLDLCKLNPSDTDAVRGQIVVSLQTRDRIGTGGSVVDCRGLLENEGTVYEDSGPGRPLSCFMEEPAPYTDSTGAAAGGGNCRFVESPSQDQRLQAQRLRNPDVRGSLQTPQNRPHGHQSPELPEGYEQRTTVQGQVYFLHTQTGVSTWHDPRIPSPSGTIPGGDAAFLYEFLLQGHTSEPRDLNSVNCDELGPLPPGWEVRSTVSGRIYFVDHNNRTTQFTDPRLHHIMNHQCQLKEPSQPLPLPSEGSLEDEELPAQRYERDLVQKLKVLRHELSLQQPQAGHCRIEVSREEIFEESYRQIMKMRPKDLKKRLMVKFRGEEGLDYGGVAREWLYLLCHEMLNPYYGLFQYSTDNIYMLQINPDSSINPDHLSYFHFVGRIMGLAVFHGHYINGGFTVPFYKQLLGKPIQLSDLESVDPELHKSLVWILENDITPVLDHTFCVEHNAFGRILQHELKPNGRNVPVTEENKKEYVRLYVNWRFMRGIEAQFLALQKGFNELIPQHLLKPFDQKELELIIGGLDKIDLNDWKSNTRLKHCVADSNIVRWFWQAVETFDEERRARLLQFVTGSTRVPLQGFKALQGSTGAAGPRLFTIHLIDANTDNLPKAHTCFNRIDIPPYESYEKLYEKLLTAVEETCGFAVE
UniProt Q15819: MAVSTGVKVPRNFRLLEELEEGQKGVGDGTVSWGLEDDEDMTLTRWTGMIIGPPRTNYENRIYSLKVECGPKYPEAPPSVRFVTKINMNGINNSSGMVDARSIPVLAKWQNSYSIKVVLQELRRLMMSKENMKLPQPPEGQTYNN
UniProt Q13404: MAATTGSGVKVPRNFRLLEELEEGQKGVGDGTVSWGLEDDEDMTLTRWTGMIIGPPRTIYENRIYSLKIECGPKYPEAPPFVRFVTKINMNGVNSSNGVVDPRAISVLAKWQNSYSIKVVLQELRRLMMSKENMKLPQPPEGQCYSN

Legend:
His6-tagged Smurf1 = His6-tagged Smurf1 (UniProt Q9HCE7); experiment: pull-down; His6-Smurf1 purified from bacterial cells on nickel agarose beads; incubated with U2OS cell extract overexpressing HA-tagged Uevs overnight at 4 °C; washed five times with lysis buffer; anti-HA blot; only the target purified
GST-Mms2 = GST-Mms2 (UniProt Q15819); experiment: pull-down; purified GST-tagged Uevs on GST beads; incubated with purified His6-Smurf1 overnight at 4 °C; washed four times with lysis buffer; anti-GST and anti-His6 blots; both purified
GST-Uev1C = GST-Uev1C (UniProt Q13404); experiment: as above

| Substance | binding (His6-tagged Smurf1) | binding (GST-Mms2) | binding (GST-Uev1C) |
| --- | --- | --- | --- |
| HA-tagged Mms2 (from UniProt Q15819 1-145) | no binding |  |  |
| His6-tagged Smurf1 (from UniProt Q9HCE7 1-757) (enzyme) |  | no binding | no binding |
